Measured values taken from patent US7059206B1 (priority 1999, dated 2006).

Key:
[1] = Percentage availability of metals to the passive sampler, urban river water; settings: relative to uptake of free ion
[2] = Electro-availability of metals at a naked mercury drop electrode, urban river water
[3] = Nafion coated cellulose membrane

SMILES	Percentage availability of metals to the passive sampler [1, 3] [%]	Percentage availability of metals to the passive sampler ([1]; Uncoated cellulose membrane) [%]	Electroavailability [2] [%]
[Cu] [Copper]	1	20	12
[Zn] [Zinc]	8	20	21
[Cd] [Cadmium]	0.03	0.05	17
